PubChem BioAssay AID652243 – Drosophila RNAi Screening Center – 2013
Screen: 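Knock-downs that decrease or increase androgen receptor reporter signal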 (primary screen). Cell system: Drosophila S2R+ cells. Reagents: long dsRNA against Drosophila genes. Time to read-out: 72 h (48 h, then 24 h hormone). Treatment: synthetic androgen R1881 at 10 nM for 24 h. Read-out: 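Firefly light from an androgen-responsive reporter and Renilla control light per well, raw and unnormalised, for each of two replicates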. Direction: firefly reporter light: higher = more light from androgen-responsive reporter; Renilla control light: higher = more constitutive control signal (cell number, transfection). Call rule: 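Hit when the log firefly-to-Renilla ratio dropped or increased by a fixed fold versus the mean of GFP or LacZ controls across duplicate plates; lowering cut given as 1.5 and as 3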. Calls: active = hit: reporter lowered or raised; inactive = no hit.
In all, the deposit lists about 24,000 reagents; shown is a random part of those that have a named target and a result. Of all reagents, 246 (1%) were called active. 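Plates not normalised; calls are printed but the firefly/Renilla ratio behind them is not deposited; fold cut for lowering reported inconsistently.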 The raw values are shown without normalisation. Unmarked entries are inactive. The record does not give: the amount of reagent.

CG40801 (retired record) [DRSC38667] — firefly reporter light, replicate 1 = 5.71e5; firefly reporter light, replicate 2 = 5.43e5; Renilla control light, replicate 1 = 1.36e6; Renilla control light, replicate 2 = 1.67e6
Dyro (Dpt-YFP repressor by overexpression) [DRSC10598] — firefly reporter light, replicate 1 = 61519; firefly reporter light, replicate 2 = 49869; Renilla control light, replicate 1 = 1.31e6; Renilla control light, replicate 2 = 1.19e6
Dyro (Dpt-YFP repressor by overexpression) [DRSC25276] — firefly reporter light, replicate 1 = 6.63e5; firefly reporter light, replicate 2 = 8.18e5; Renilla control light, replicate 1 = 6.06e5; Renilla control light, replicate 2 = 8.93e5
Rbp1-like [DRSC19828] — firefly reporter light, replicate 1 = 5.71e5; firefly reporter light, replicate 2 = 5.51e5; Renilla control light, replicate 1 = 3.22e6; Renilla control light, replicate 2 = 4.16e6
Rbp1-like [DRSC21938] — firefly reporter light, replicate 1 = 4.60e5; firefly reporter light, replicate 2 = 5.06e5; Renilla control light, replicate 1 = 1.46e6; Renilla control light, replicate 2 = 1.26e6
Rbp1-like [DRSC22075] — firefly reporter light, replicate 1 = 5.72e5; firefly reporter light, replicate 2 = 5.02e5; Renilla control light, replicate 1 = 3.53e5; Renilla control light, replicate 2 = 3.96e5
Rbp1-like [DRSC25442] — firefly reporter light, replicate 1 = 9.36e5; firefly reporter light, replicate 2 = 6.20e5; Renilla control light, replicate 1 = 6.96e5; Renilla control light, replicate 2 = 7.57e5
Rbp1-like [DRSC26949] — firefly reporter light, replicate 1 = 3.85e5; firefly reporter light, replicate 2 = 3.19e5; Renilla control light, replicate 1 = 6.57e5; Renilla control light, replicate 2 = 3.38e5
Hers (Histone gene-specific Epigenetic Repressor in late S phase) [DRSC19429] — firefly reporter light, replicate 1 = 42680; firefly reporter light, replicate 2 = 73689; Renilla control light, replicate 1 = 6.92e5; Renilla control light, replicate 2 = 6.58e5
Hers (Histone gene-specific Epigenetic Repressor in late S phase) [DRSC19676] — firefly reporter light, replicate 1 = 1.27e5; firefly reporter light, replicate 2 = 1.21e5; Renilla control light, replicate 1 = 9.26e5; Renilla control light, replicate 2 = 3.41e5
Hers (Histone gene-specific Epigenetic Repressor in late S phase) [DRSC24330] — firefly reporter light, replicate 1 = 5.77e5; firefly reporter light, replicate 2 = 6.98e5; Renilla control light, replicate 1 = 5.20e5; Renilla control light, replicate 2 = 6.99e5
upSET [DRSC23289] — firefly reporter light, replicate 1 = 7.79e5; firefly reporter light, replicate 2 = 8.15e5; Renilla control light, replicate 1 = 1.20e6; Renilla control light, replicate 2 = 1.73e6

2 neighbouring reagents from above, for reference:
Hers (Histone gene-specific Epigenetic Repressor in late S phase) [DRSC24330] — firefly reporter light, replicate 1 = 5.77e5; firefly reporter light, replicate 2 = 6.98e5; Renilla control light, replicate 1 = 5.20e5; Renilla control light, replicate 2 = 6.99e5
upSET [DRSC23289] — firefly reporter light, replicate 1 = 7.79e5; firefly reporter light, replicate 2 = 8.15e5; Renilla control light, replicate 1 = 1.20e6; Renilla control light, replicate 2 = 1.73e6
